# Patent publication US9084782B2, “Chemical inhibitors of cholesterol biosynthesis and venous angiogenesis” (The Regents of the University of California, priority 2011, dated 2015)
# Some of these results come from one statement about several compounds together.
# Tested on: Tg(kdrl:GFP) zebrafish embryos
# Assay: Caudal vein plexus (CVP) formation / venous angiogenesis in Tg(kdrl:GFP) zebrafish embryos
# Type: in vivo
# Settings: SAR study, compared with aplexone
# Source text: Images of GFP expression in Tg(kdrl:GFP) embryos were acquired using a Zeiss SV-11 epifluorescence microscope. Confocal images were acquired using a Carl Zeiss Laser Scanning Systems LSM510 equipped with 20× air, 20× water or 40× water immersion objectives. For single time point confocal images, embryos were anesthetized with 0.01% tricaine and embedded in 1% agarose. When capturing time-lapse confocal movies, embryos were mounted in 3.5% methylcellulose (Sigma-Aldrich) and imaged for 5 hrs on a heated stage at 28.5° C. The images obtained were analyzed using the Zeiss LSM Image Brower version 4 and Image J.
# A synthetic chemical library containing 168 compounds (Castellano et al., 2007) and 300 chemicals from Biomol International LP, consisting of 72 ion channel inhibitors (Cat No. 2805), 84 kinase/phosphatase inhibitors (Cat No. 2831), 84 orphan ligands (Cat No. 2825), and 60 endocannabinoids (Cat No. 2801) were screened. The synthetic small molecules were prepared through nucleophilic phosphine catalysis of allenoates (Zhu et al., 2003). Four Tg(kdrl:GFP) embryos were placed into each well of 96-well plates containing a 10 μM solution of each chemical compound dissolved in embryo buffer with 0.1% DMSO. The embryos were raised at 28.5° C. and examined for defects in blood vessel development at 1 and 2 days after treatment. Standard parameters such as numbers of somites and head to body angle were used to determine the stages of zebrafish embryos (Kimmel et al., 1995).
# Aplexone treatment described in this study was carried out at a concentration of 10 μM starting at 10 hpf unless otherwise specified.
# 8 ng tnnt2 MO (Gene Tools) (Sehnert et al., 2002), 3 nl of 4 mM GGTI-2133 (Calbiochem), 3 nl of 5 mM L744,832 (Calbiochem) and 1 nl of 2M mevalonate (Sigma-Aldrich) were injected into 1-2 cell stage embryos.
# The library of 168 compounds^24 prepared through the nucleophilic phosphine catalysis of allenes were screened using Tg(kdrl:GFP) zebrafish. Four embryos were placed in each well of 96-well plates containing a 10 uM solution of each chemical compound dissolved in embryo buffer with 0.1% DMSO. The embryos were raised at 28.5° C. and defects in blood vessel development were examined at 1 and 2 days after fertilization.
row,Compound,anti-angiogenetic activity of aplexone analogs (inhibition of CVP formation / venous angiogenesis)
1,CC(=O)C1=CCC(c2ccccc2F)N(S(=O)(=O)c2ccc(C)cc2)C1 (stereo not shown) [Compound 22],retained the anti-angiogenetic activity
2,CC(=O)C1=CCC(c2cccc(Cl)c2)N(S(=O)(=O)c2ccc(C)cc2)C1 (stereo not shown) [Compound 21],retained the anti-angiogenetic activity
3,CC(=O)C1=CCC(c2ccccc2Cl)N(S(=O)(=O)c2ccc(C)cc2)C1 (stereo not shown) [Compound 23],retained the anti-angiogenetic activity
4,CC(=O)C1=CCC(c2ccc(C(C)C)cc2)N(S(=O)(=O)c2ccc(C)cc2)C1 (stereo not shown) [Compound 27],detrimental to the biological activity
5,CCOc1ccc(C2CC=C(C(C)=O)CN2S(=O)(=O)c2ccc(C)cc2)cc1 (stereo not shown) [Compound 30],detrimental to the biological activity
6,COc1ccc(C2CC=C(C(C)=O)CN2S(=O)(=O)c2ccc(C)cc2)cc1 (stereo not shown) [Compound 29],detrimental to the biological activity
7,CC(=O)C1=CCC(c2ccc(Br)cc2)N(S(=O)(=O)c2ccc(C)cc2)C1 (stereo not shown) [Compound 28],detrimental to the biological activity
